Experimental data published in patent US7087633B2, “Method for treating perinatal asphyxia in a human or animal neonate” (Universitair Medisch Centrum, priority 2000, dated 2006).
At least one structure is not confirmed: it was looked up by name or label, or the drawing left a doubt.

System: newborn Dutch store piglets subjected to HI
Conditions: 24 h post HI versus baseline; ALLO 20 mg/kg iv, DFO 10 mg/kg iv, 2-IB 150 μM i.v.
Protocol: Following anaesthesia and instrumentation 37 newborn Dutch store piglets (1–3 days old) were subjected to HI by occluding both common carotid arteries with inflatable cuffs and reducing the fraction of inspired oxygen for 60 min. MRS was performed continuously before, during and up to 3 h after start of HI and repeated at 24 h post HI. During hypoxia FiO2 was reduced>on-line=until PCr/Pi had decreased to at least 25% of baseline values. Immediately after HI the piglets received either placebo (PLAC; n=10), ALLO (20 mg/kg iv; n=10), DFO (10 mg/kg iv; n=10) or 2-IB (150 μM i.v.; n=7). Before HI and from 3 to 24 h post HI the piglets were monitored using aEEG for electrical brain activity determination. A neurologic scoring system was used ranging from 4 (normal) to 0 (flat trace). For 1H-MRS a PRESS sequence with CHESS water suppression was used to define a 1.7 ml periventricular voxel (TR 6 s, TE 144 ms, and nt=32 or 64). 31 P— MRS was done using a 4 cm-diameter surface coil for excitation and detection (TR 10 s, nt=32). Peak amplitudes of PCr, Pi, Lac and NAA were determined with time domain fitting procedures (VARPRO). Paired t-tests were used to compare measurements at 24 h versus baseline; repeated ANOVA served to monitor for trends between treatment groups.

## CC(=O)N(O)CCCCCNC(=O)CCC(=O)N(O)CCCCCNC(=O)CCC(=O)N(O)CCCCCN [DFO, deferoxamine, reference compound]
  PCr/Pi (cerebral energy status): prevented partly
